Experimental data reported in US20260159575A1.
These are yes or no findings as the source states them, for the method shown. Some entries that bind do so weakly or less than the wild type.

Protein sequences, listed by entry. Tags and fused reporters are not part of them. Residues count along the entry.
UniProt P10636, residues 561-685: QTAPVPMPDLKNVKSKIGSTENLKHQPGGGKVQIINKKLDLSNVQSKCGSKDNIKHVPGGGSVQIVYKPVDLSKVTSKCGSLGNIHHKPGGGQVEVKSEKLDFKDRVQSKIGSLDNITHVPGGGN

Molecular target: MTBR-tau (human) (UniProt P10636)
Test: target engagement in human CSF after IV dosing; E2814-bound and free MTBR-tau proxy peptide concentrations measured

B1: antibody E2814 (antibody, human IgG1, kappa, V domains shown)
VH: EVQLLESGGGLVQPGGSLRLSCAASGYTFTTYWITWVRQAPGKGLEWVSDIYPGSSISNYNEKFKSRFTISVDNSKNTLYLQMNSLRAEDTAVYYCAREDGYDAWFAYWGQGTLVTVSS
VL: DIQMTQSPSSLSASVGDRVTITCRSSQSILHSNGNTYLEWYQQKPGKAPKLLISKVSNRFSGVPSRFSGSGSGTDFTLTISSLQPEDFATYYCFQGSHVPFTFGQGTKLEIKR
- binding: binds
